Data: paper PMC9065044
Results are given in words; binding and its absence hold for the method and conditions named. Binding seen in cells or lysates may run through a third protein. Some entries that bind do so weakly or less than the wild type.

Legend:
[1] = molecular target: T1, POU6F1, overexpressed in A549 cells (mock or POU6F1) (human) (UniProt Q14863); experiment: co-IP; A549 cells transfected with mock or POU6F1; co-IP and western blotting; which protein was precipitated is not told
T1 sequence: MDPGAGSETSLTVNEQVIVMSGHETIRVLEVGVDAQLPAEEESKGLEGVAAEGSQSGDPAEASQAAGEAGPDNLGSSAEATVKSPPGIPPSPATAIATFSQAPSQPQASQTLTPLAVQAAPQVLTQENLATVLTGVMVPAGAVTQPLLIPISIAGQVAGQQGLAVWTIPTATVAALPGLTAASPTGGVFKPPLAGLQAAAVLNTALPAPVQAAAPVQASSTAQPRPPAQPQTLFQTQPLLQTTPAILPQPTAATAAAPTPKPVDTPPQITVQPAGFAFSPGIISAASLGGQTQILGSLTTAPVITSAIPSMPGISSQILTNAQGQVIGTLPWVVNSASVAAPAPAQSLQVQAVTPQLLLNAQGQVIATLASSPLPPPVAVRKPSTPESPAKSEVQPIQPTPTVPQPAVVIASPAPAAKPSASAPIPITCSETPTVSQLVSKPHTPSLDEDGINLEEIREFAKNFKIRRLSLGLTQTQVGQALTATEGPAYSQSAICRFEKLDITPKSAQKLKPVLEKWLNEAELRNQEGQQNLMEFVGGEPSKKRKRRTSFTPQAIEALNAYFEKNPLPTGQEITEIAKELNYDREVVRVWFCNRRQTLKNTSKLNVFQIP

[2] = molecular target: T2, POU domain, class 6, transcription factor 1 (POU6F1), endogenous (human (endogenous in A549)) (UniProt Q14863); experiment: co-IP; endogenous proteins in A549 cells; IP followed by western blotting; IgG as negative control; which protein was precipitated is not told
T2 sequence: T1 sequence

binding [1]: binds | binding [2]: binds
B1: Retinoid-related orphan receptor alpha (RORA), endogenous (protein, UniProt P35398 1-523)
chain: MESAPAAPDPAASEPGSSGADAAAGSRETPLNQESARKSEPPAPVRRQSYSSTSRGISVTKKTHTSQIEIIPCKICGDKSSGIHYGVITCEGCKGFFRRSQQSNATYSCPRQKNCLIDRTSRNRCQHCRLQKCLAVGMSRDAVKFGRMSKKQRDSLYAEVQKHRMQQQQRDHQQQPGEAEPLTPTYNISANGLTELHDDLSNYIDGHTPEGSKADSAVSSFYLDIQPSPDQSGLDINGIKPEPICDYTPASGFFPYCSFTNGETSPTVSMAELEHLAQNISKSHLETCQYLREELQQITWQTFLQEEIENYQNKQREVMWQLCAIKITEAIQYVVEFAKRIDGFMELCQNDQIVLLKAGSLEVVFIRMCRAFDSQNNTVYFDGKYASPDVFKSLGCEDFISFVFEFGKSLCSMHLTEDEIALFSAFVLMSADRSWLQEKVKIEKLQQKIQLALQHVLQKNHREDGILTKLICKVSTLRALCGRHTEKLMAFKAIYPDIVRLHFPPLYKELFTSEFEPAMQIDG
